# The campaign covered roughly 320,000 compounds. About 22,000 (6.9%) were called active. Inconclusive results, whose numbers are uncertain, are shown with a selection of clear calls. Calls come from the whole dose curve; as a rule, active = well fitted inhibition curve with a large enough effect; inconclusive = small, poorly fitted or top-dose-only effect, or another doubt; inactive = no such curve, though single readings can be large or run the other way. A potency beside an inconclusive call is a rough fit, not a confirmed value.
# Experiment: Primary qHTS for delayed death inhibitors of the malarial parasite plastid, 96 hour incubation
# Conditions: P. falciparum luciferase reporter growth; series mostly up to 28.7 µM; activity change, negative = inhibition: at the top concentration
# Summary of the method: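 Readout is luminescence from an integrated firefly luciferase in P. falciparum. Red cells, 2% hematocrit and 0.05% parasitemia final, were cultured with compound through two parasite generations (96 hours) at 37 C, 5% CO2.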
# % is set by controls: 0 for no effect and ±100 for the full control effect; potency is the fitted concentration of half-maximal effect.
Compound,Potency,"activity change, negative = inhibition"
CCCCCCN(C(=O)CCCCCN1C(=O)NC(c2ccc(-c3ccccc3)cc2)C(C(=O)OCc2ccccc2)=C1C)C(C(=O)NCCCC)C1CCCCC1 (stereo unspecified),active: 2.62 µM,
Cc1cccc(C(=O)Oc2cccc3c(O)cccc23)c1,"inconclusive: 18.5 µM [inhibitor, single point]",
CNC(=S)N1CCN(c2ccccn2)CC1,"inconclusive: 11.7 µM [inhibitor, single point]",
O=C(c1ccc(Cl)c(S(=O)(=O)N2CCCC2)c1)N1CCCC(C(F)(F)F)C1 (stereo unspecified),"inconclusive: 18.5 µM [inhibitor, single point]",
O=C(Nn1c(O)c(C=C2N=c3ccccc3=N2)sc1=S)c1ccc(Cl)cc1,"inconclusive: 18.5 µM [inhibitor, single point]",
Cc1ccc(N(C)S(=O)(=O)c2ccc(C)cc2)cc1,"inconclusive: 0.0738 µM [inhibitor, full curve, poor fit]",
CCc1cc2c(=O)c(-c3nc(C)cs3)coc2cc1OC(C)C(=O)NCCO (stereo unspecified),,inactive: -28.3%
Cc1cc(C(=O)NCc2cc(C(=O)O)co2)co1,,inactive: 9.66%
O=C(O)C1CCCCC1C(=O)NCc1ccc2c(c1)OCO2 (stereo unspecified),"inconclusive: 10.4 µM [inhibitor, single point]",
OC(CNCc1cccs1)c1ccccc1 (stereo unspecified),"inconclusive: 18.5 µM [inhibitor, single point]",
CCOC(=O)CN(C(=O)CSc1nnc2c(n1)[nH]c1c(C)cc(C)cc12)c1ccccc1,"inconclusive: 1.85 µM [inhibitor, full curve, poor fit]",
Cc1cccc2cc(CN(CC3CCCO3)C(=O)c3cnccn3)c(=O)[nH]c12 (stereo unspecified),"inconclusive: 18.5 µM [inhibitor, single point]",
O=C(c1ccoc1)N1CCC2(CC1)Oc1ccc(F)cc1C(=O)C21CC(c2ccccc2)=NO1 (stereo unspecified),active: 11.7 µM,
O=C(Cc1ccccc1)NNS(=O)(=O)c1ccc([N+](=O)[O-])cc1,"inconclusive: 3.29 µM [inhibitor, partial curve, poor fit]",
COc1ccc(Nc2cc(C)nc3ncnn23)cc1Cl,"inconclusive: 14.7 µM [inhibitor, partial curve, poor fit]",
Cc1ccc(NC(=O)C2C3CCC(O3)C2C(=O)O)cc1Cl (stereo unspecified),active: 13.1 µM,
Clc1c(-c2ccccc2)nc2ccccn12,,inactive: 16.4%
Fc1ccccc1/C=N/Nc1ncnc2nc[nH]c12,,inactive: 18.2%
N#Cc1cc(C(=O)Cc2ccccc2)c[nH]1,,inactive: 14.7%
CC(C)(C)c1ccc(NS(=O)(=O)c2ccc(N)cc2)cc1,,inactive: -4.45%
CCSc1nc(-c2ccccc2)c(-c2ccccc2)n1CC(O)CO (stereo unspecified),"inconclusive: 18.5 µM [inhibitor, single point]",
Cn1c(=O)oc2cc(S(=O)(=O)N3CCCC(C(=O)N4CCn5c4nc4ccccc45)C3)ccc21 (stereo unspecified),"inconclusive: 10.4 µM [inhibitor, partial curve, poor fit]",

Compound,Potency,"activity change, negative = inhibition"
CC(=O)N1CCOCCOCCN(C(C)=O)CCOCC1,"inconclusive: 18.5 µM [inhibitor, single point]",
CCOC(=O)C1=C(COC(=O)/C=C/c2ccc(OC)c(OC)c2)NC(=O)NC1C (stereo unspecified),,inactive: 18.8%
Clc1cccc(/C=N/Nc2ncnc3ccccc23)c1,"inconclusive: 4.15 µM [inhibitor, partial curve]",
Cc1ccc(S(=O)(=O)c2c(COC(=O)c3cccc(Cl)c3)c(-c3ccccc3)nn2C)cc1,"inconclusive: 4.15 µM [inhibitor, single point]",
O=C(Nc1ccc(Cl)cc1)c1ccncc1,,inactive: 36.4%
Cc1cccc(NC(=O)CN2CCN(CC(=O)NCc3ccc(Cl)cc3Cl)CC2)c1C,"inconclusive: 14.7 µM [inhibitor, partial curve, poor fit]",
N#Cc1c(-c2ccccc2)ccn(Cc2ccccc2Cl)c1=O,active: 14.7 µM,
Cc1ccccc1CC1(CO)CCCN(Cc2ccccc2Cl)C1 (stereo unspecified),"inconclusive: 18.5 µM [inhibitor, single point]",
Cc1cc(OC(C)C(=O)NCc2cccnc2)c2c(C)cc(=O)oc2c1 (stereo unspecified),"inconclusive: 11.7 µM [inhibitor, single point]",
COc1ccc(CNC(=O)CCC(=O)N2CCN(S(=O)(=O)c3ccc(Cl)cc3)CC2)cc1,"inconclusive: 3.29 µM [inhibitor, partial curve, poor fit]",
Cc1ccc(-n2c(C3CC3c3ccc(Cl)cc3)n[nH]c2=S)cc1 (stereo unspecified),active: 9.28 µM,
Nc1ccc(C(=O)N/N=C/c2cn(Cc3ccccc3)c3ccccc23)cc1,"inconclusive: 13.1 µM [inhibitor, single point]",
Cc1cccc(C)c1NC(=O)COC(=O)c1c(C)nn(-c2ccccc2)c1C,"inconclusive: 13.1 µM [inhibitor, single point]",
O=c1c2c3c(sc2nc(NCCOCCO)n1Cc1ccco1)CCCCC3,"inconclusive: 11.7 µM [inhibitor, partial curve, poor fit]",
COc1ccc(-n2c(SCC(=O)Nc3cc(C)on3)nc3c([nH]c4ccccc43)c2=O)cc1OC,active: 6.57 µM,
Cc1ccc2nc3n(c2c1)CCCN3,"inconclusive: 18.5 µM [inhibitor, single point]",
CCOC(=O)c1[nH]c(C)c(C(=O)NCC2CCCO2)c1C (stereo unspecified),,inactive: 1.04%
COc1ccc(Cl)cc1NC(=O)CN(C)CC(=O)Nc1cccc(S(=O)(=O)N2CCCC2)c1,active: 3.29 µM,
O=C(NCc1ccc(Cl)cc1)C1CCCN(S(=O)(=O)c2cnc[nH]2)C1 (stereo unspecified),"inconclusive: 6.57 µM [inhibitor, partial curve, poor fit]",
Cc1cc(C)c2nc(N(CCN(C)C)C(=O)c3ccc4ccccc4c3)sc2c1,"inconclusive: 2.33 µM [inhibitor, full curve, poor fit]",
CC(C)(CNCC(O)c1ccccc1)N1CCOCC1 (stereo unspecified),active: 5.86 µM,
O=C1CN=C(c2ccccc2)c2cc(Cl)ccc2N1CC1CC1,"inconclusive: 8.49 µM [inhibitor, partial curve, poor fit]",

Compound,Potency,"activity change, negative = inhibition"
CC(C)C[C@H](NC(=O)c1nc[nH]c1C(=O)N(C)Cc1ccccc1)C(=O)OCc1ccccc1,"inconclusive: 11.7 µM [inhibitor, partial curve, poor fit]",
CC(C)CC(=O)N1CCN(C(=O)CCC2CCCC2)CC1,"inconclusive: 16.5 µM [inhibitor, partial curve, poor fit]",
Cc1ccc(-c2c(C#N)c(N)n3c(nc4ccccc43)c2C#N)cc1,,inactive: 0%
CCCc1cc(=O)oc2cc(OCC(=O)N3CCc4ccccc43)ccc12,"inconclusive: 18.5 µM [inhibitor, single point]",
Clc1ccc(-c2nc3cnccn3c2Nc2ccc3c(c2)OCO3)cc1,"inconclusive: 1.85 µM [inhibitor, full curve, poor fit]",
Cc1cccc(-c2nc(CS(=O)CC(=O)NCC3CCCO3)c(C)o2)c1 (stereo unspecified),"inconclusive: 11.7 µM [inhibitor, single point]",
CC(OC(=O)COc1ccccc1[N+](=O)[O-])C(=O)Nc1ccc(N2CCOCC2)cc1 (stereo unspecified),,inactive: 3.15%
Cc1ccc(O)c(NC(=O)Cc2ccc3ccccc3c2)c1,"inconclusive: 20.8 µM [inhibitor, partial curve, poor fit]",
Cn1ccsc1=NC(=O)c1ccccc1F,"inconclusive: 18.5 µM [inhibitor, single point]",
Cc1ccc(NC(=S)NNC(=O)c2ccc(N3CCOCC3)c([N+](=O)[O-])c2)cc1C,"inconclusive: 11.7 µM [inhibitor, single point]",
C=CCn1c(SCC(=O)NC(=O)NCc2ccco2)nc2sc(C)c(C)c2c1=O,"inconclusive: 13.1 µM [inhibitor, partial curve]",
COc1ccc(N2CCN(C(=O)CCCn3c(=S)[nH]c4cc5c(cc4c3=O)OCO5)CC2)cc1,"inconclusive: 9.28 µM [inhibitor, partial curve, poor fit]",
COc1cc(C(=O)NC(C)c2cc(C)ccc2C)ccc1OCC(=O)N1CCOCC1 (stereo unspecified),"inconclusive: 0.0083 µM [inhibitor, full curve, poor fit]",
COc1ccc2ncn(-c3ccccc3)c2c1,"inconclusive: 14.7 µM [inhibitor, partial curve, poor fit]",
S=C(Nc1ccccc1Oc1ccccc1)Nc1cccc(Cl)c1Cl,"inconclusive: 14.7 µM [inhibitor, single point]",
O=C(Cc1ccccc1)Nc1ccc(NC(=O)c2ccccc2)c(Cl)c1,"inconclusive: 13.1 µM [inhibitor, single point]",
CC(C)NC(=O)c1ccc(NC(=O)CC2SC(N3CCCCC3)=NC2=O)cc1 (stereo unspecified),"inconclusive: 18.5 µM [inhibitor, single point]",
O=C(CN(C(=O)C1CSC(=O)C1)c1ccc(F)cc1)NCc1ccc2c(c1)OCO2 (stereo unspecified),"inconclusive: 10.4 µM [inhibitor, partial curve]",
COc1ccc(CNC(=O)CNC(=O)c2ccc(C(C)(C)C)cc2)cc1OC,"inconclusive: 0.0586 µM [inhibitor, full curve, poor fit]",
Cc1ccccc1CS(=O)(=O)Cc1ccc(C(=O)NCCCN2CCOCC2)o1,"inconclusive: 13.1 µM [inhibitor, single point]",
CC(c1ccccc1)N1CCn2c(nc3cc(NC(=O)NC4CCCCC4)ccc32)C1 (stereo unspecified),"inconclusive: 18.5 µM [inhibitor, single point]",
FC(F)(F)c1ccc(NC(=S)NC2CCCCC2)cc1,"inconclusive: 18.5 µM [inhibitor, single point]",
